Test results from article PMC5687616.
No constants are given. Whether binding was seen depends on the method and setting. Binding seen in cells or lysates may run through a third protein. Some binding calls cover weakened binding; strength is not graded here.

Amino acid sequences for entries named in this document (tags omitted).
UniProt Q15583: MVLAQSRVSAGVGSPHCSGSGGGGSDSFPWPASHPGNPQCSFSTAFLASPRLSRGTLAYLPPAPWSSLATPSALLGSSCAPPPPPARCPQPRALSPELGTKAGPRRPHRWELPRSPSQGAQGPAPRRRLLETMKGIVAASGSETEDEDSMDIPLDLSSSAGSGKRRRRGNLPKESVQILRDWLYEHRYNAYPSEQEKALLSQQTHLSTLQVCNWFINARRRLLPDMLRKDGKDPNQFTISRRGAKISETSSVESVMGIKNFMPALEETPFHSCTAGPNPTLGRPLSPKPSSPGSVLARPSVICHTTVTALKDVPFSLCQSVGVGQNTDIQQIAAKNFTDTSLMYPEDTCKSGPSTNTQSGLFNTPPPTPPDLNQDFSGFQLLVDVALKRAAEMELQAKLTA

Legend:
[1] = molecular target: T1, SIN3A (human (endogenous in MDA-MB-231 and D3H2LN)) (UniProt Q96ST3); assay: co-IP; nuclear extract of D3H2LN cells, untreated or treated with SCR or SID peptide (2.5 μM, 24 or 72 hours); IP with SIN3A polyclonal antibody (sc 767) and blot for TGIF1, and IP with TGIF1 polyclonal antibody (H-172) and blot for SIN3A
T1 sequence: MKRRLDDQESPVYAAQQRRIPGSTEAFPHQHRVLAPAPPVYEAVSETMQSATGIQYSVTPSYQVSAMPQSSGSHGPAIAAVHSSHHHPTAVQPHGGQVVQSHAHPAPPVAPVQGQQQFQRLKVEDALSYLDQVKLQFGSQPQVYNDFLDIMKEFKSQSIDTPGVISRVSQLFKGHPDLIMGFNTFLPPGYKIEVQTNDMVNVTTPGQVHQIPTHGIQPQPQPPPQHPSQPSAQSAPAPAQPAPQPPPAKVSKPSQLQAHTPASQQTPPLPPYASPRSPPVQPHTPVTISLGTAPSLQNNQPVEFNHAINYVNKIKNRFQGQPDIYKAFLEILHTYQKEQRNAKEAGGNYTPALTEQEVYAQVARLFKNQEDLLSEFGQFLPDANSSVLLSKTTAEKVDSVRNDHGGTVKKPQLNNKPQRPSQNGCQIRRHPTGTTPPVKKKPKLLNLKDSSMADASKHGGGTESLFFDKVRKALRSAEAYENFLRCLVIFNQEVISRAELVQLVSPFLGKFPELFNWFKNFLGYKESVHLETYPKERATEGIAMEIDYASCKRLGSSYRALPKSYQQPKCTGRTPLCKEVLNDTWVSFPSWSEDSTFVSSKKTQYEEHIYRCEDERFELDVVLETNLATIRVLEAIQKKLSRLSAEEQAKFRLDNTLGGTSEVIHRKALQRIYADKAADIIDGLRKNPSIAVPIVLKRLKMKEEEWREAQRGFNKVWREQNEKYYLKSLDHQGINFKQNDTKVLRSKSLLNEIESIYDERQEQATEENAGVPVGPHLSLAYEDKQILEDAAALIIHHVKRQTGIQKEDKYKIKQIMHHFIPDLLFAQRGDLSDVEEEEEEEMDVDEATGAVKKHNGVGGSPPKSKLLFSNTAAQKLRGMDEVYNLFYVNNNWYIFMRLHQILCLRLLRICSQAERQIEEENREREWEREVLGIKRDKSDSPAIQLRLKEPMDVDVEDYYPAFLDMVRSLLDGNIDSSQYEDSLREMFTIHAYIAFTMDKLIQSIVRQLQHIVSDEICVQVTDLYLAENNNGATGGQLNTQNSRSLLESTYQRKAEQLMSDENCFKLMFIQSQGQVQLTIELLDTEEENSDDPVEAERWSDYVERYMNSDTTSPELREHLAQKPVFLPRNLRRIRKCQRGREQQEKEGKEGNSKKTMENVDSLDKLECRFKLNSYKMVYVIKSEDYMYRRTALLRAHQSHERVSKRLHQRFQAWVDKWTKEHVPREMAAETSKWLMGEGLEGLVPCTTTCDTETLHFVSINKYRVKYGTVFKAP

[2] = molecular target: T1, SIN3A (human (endogenous in MDA-MB-231 and D3H2LN)); assay: proximity ligation; PLA of SIN3A and TGIF1 in MDA-MB-231 cells, untreated or treated with SCR or SID peptide (2.5 μM, 24 or 72 hours); signals per cell in the nucleus counted

In the case of TGIF1 (from UniProt Q15583 1-401), the binding [1] was “binds” and the binding [2] was “binds”.
